Laboratory results: patent publication US12233108B2, “Compositions and methods for promoting islet viability and enhancing insulin secretion” (University of Virginia Patent Foundation, priority 2019, dated 2025)
Some of these results come from one statement about several compounds together.

System: human islets
Assay: Glucose-stimulated insulin secretion (GSIS) assay, human islets
Type: cell-based
Conditions: 1 μM peptide overnight, 28 mM glucose
Protocol: Human islet cells were similarly incubated with a N-94 peptide or C-95 peptide for varying periods of time following which GSIS assay and viability measurements were conducted. Insulin was measured using Insulin ELISA kit (Mercodia, Uppsala, Sweden).
Human islet cells were incubated overnight with 1 μM N-94 peptide (SEQ ID NO: 1), N-94/C6 peptide (SEQ ID NO: 62), N104 peptide, Tearpep3 peptide (SEQ ID NO: 21), Tearpep3/C6 peptide (SEQ ID NO: 33), C-95 peptide, or no treatment followed by GSIS assays (se FIG. 2A for the structures of, and Table 2 for the sequences of, these exemplary peptides). C57BL/6 islet cells were pretreated with 4 μM N-94 N-94 peptide or C-95 peptide or saline for 24 hours followed by minimal islet mass transplantation into syngeneic diabetic recipients. Tail vein blood glucoses were measured daily.
50 human islets were incubated with N-94 peptide or C-95 peptide for 1, 3, 4, 6 and 9 days following which GSIS assay and viability measurement were conducted. Insulin was measured using Insulin ELISA kit (Mercodia).
Human islets were incubated overnight with 1 μM N-94 peptide, N-94/C6 peptide, N104 peptide, Tearpep3 peptide, Tearpep3/C6 peptide, C-95 peptide, or no treatment and GSIS assay performed.

KRFYKRGAELGKNRRKNWH [Tearpep3/C-6]
GSIS response / insulin secretion compared to C-95 peptide: > 2.5 fold

KRFYKRGAELGKNRRKNWHAQLFVL [Tearpep3]
GSIS response / insulin secretion compared to C-95 peptide: > 2.5 fold
